Results deposited as PubChem BioAssay AID1224828 (NIAID, 2016).

Test: 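Regulators linking TLR4 signalling to p65 nuclear translocation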 (primary screen)
Cell system: mouse RAW264.7 G9 macrophage reporter cells (GFP-p65, Tnf promoter-mCherry)
Reagent: siRNA pool against mouse genes, 100 nM
Duration: 2 days siRNA transfection, then 40 min LPS before fixation
Conditions: LPS (Salmonella minnesota R595) at 10 ng/ml
Measured: 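Imaged p65 nuclear translocation ratio, normalised to the plate median, converted to robust z-scores and averaged across two replicates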
Scale: p65 translocation robust z-score: higher = more nuclear NF-kappaB p65 after LPS than the plate median; nuclear/cytoplasmic p65 ratio: higher = more nuclear NF-kappaB p65
Hit rule: 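Active if robust z is above 3.3 (negative regulators) or below -1.56, the Tlr4 control median (positive regulators); activity score 50 or more; control wells not called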
Calls: active = hit (p65 shift raised or lowered); inactive = no clear change
The deposit covers about 17,000 reagents; below is an unselected part. 762 of all reagents (4.5%) count as active. 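Active calls include both raised and lowered p65 entry, mostly lowered; wells with fewer than 50 cells lack a z-score.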 Raw values are not corrected between plates.

gene knocked down	PubChem SID	p65 translocation robust z-score	nuclear/cytoplasmic p65 ratio, rep 1	nuclear/cytoplasmic p65 ratio, rep 2	low cell count flag	outcome
Ublcp1 (ubiquitin-like domain containing CTD phosphatase 1)	SID315475682	0.26	1.54	1.98	enough cells to score	inactive
Grn (granulin)	SID315467041	0.33	1.72	1.57	enough cells to score	inactive
Tbc1d12 (TBC1D12: TBC1 domain family, member 12)	SID315477599	-0.66	1.28	1.13	enough cells to score	inactive
Cchcr1 (coiled-coil alpha-helical rod protein 1)	SID315479484	0.56	1.57	1.77	enough cells to score	inactive
Gigyf2 (GRB10 interacting GYF protein 2)	SID315478558	0.89	1.46	1.3	enough cells to score	inactive
Wdr54 (WD repeat domain 54)	SID315475172		1.13	1.32	fewer than 50 cells per well; well left out of scoring	inactive
Ppp3cc (protein phosphatase 3, catalytic subunit, gamma isoform)	SID315468670	-0.01	1.51	1.4	enough cells to score	inactive
Pgcka1 (PDCD10 and GCKIII kinases associated 1)	SID315475272	-0.58	1.3	1.52	enough cells to score	inactive
Rab3a (RAB3A, member RAS oncogene family)	SID315468856	-0.33	1.51	1.43	enough cells to score	inactive
Tnfrsf13b (tumor necrosis factor receptor superfamily, member 13b)	SID315471848	0.11	1.45	1.62	enough cells to score	inactive
Dhdh (dihydrodiol dehydrogenase)	SID315474310		1.25	1.23	fewer than 50 cells per well; well left out of scoring	inactive
Or52h9 (olfactory receptor family 52 subfamily H member 9)	SID315480454	-0.23	1.41	1.17	enough cells to score	inactive
Ruvbl2 (RuvB-like AAA ATPase 2)	SID315469064	-0.44	1.47	1.36	enough cells to score	inactive
Marcks (myristoylated alanine rich protein kinase C substrate)	SID315467796	-1.21	1.19	1.2	enough cells to score	inactive
Pip4k2b (phosphatidylinositol-5-phosphate 4-kinase, type II, beta)	SID315476685		1.31	1.23	fewer than 50 cells per well; well left out of scoring	inactive
Timd2 (T cell immunoglobulin and mucin domain containing 2)	SID315477356	0.06	1.36	1.21	enough cells to score	inactive
Tmem65 (transmembrane protein 65)	SID315475055		1.07	1.09	fewer than 50 cells per well; well left out of scoring	inactive
Cdh16 (cadherin 16)	SID315465898	-0.8	1.37	1.26	enough cells to score	inactive
Tnp1 (transition protein 1)	SID315469787	-0.9	1.17	1.09	enough cells to score	inactive
Alk (anaplastic lymphoma kinase)	SID315465390		1.69	1.08	fewer than 50 cells per well; well left out of scoring	inactive
Krtap15-1 (keratin associated protein 15-1)	SID315470438	1.74	1.63	1.82	enough cells to score	inactive
Adgrb2 (adhesion G protein-coupled receptor B2)	SID315478823	1.08	1.71	1.69	enough cells to score	inactive
Zic2 (zinc finger protein of the cerebellum 2)	SID315470149	1.13	1.83	1.63	enough cells to score	inactive
Zfp316 (zinc finger protein 316)	SID315471182	-0.49	1.34	1.2	enough cells to score	inactive
Polr1b (polymerase (RNA) I polypeptide B)	SID315469027	0.14	1.41	1.26	enough cells to score	inactive
Zfp189 (zinc finger protein 189)	SID315478768	-0.01	1.33	1.25	enough cells to score	inactive
Or5t18 (olfactory receptor family 5 subfamily T member 18)	SID315479934	1.69	1.85	1.66	enough cells to score	inactive
Ntng2 (netrin G2)	SID315477270	0.19	1.77	1.54	enough cells to score	inactive
Ccdc90b (coiled-coil domain containing 90B)	SID315472390		1.52	1.39	fewer than 50 cells per well; well left out of scoring	inactive
Ubr2 (ubiquitin protein ligase E3 component n-recognin 2)	SID315478378	0.71	1.61	1.44	enough cells to score	inactive
Zfp287 (zinc finger protein 287)	SID315477211		1.16	1.17	fewer than 50 cells per well; well left out of scoring	inactive
Ss18 (SS18, subunit of BAF chromatin remodeling complex)	SID315480819	-0.99	1.42	1.39	enough cells to score	inactive
Syt4 (synaptotagmin IV)	SID315469561	-0.7	1.25	1.13	enough cells to score	inactive
Ice2 (interactor of little elongation complex ELL subunit 2)	SID315475930	1.82	1.68	1.58	enough cells to score	inactive
Ccrl2 (C-C motif chemokine receptor-like 2)	SID315471180	-0.98	1.37	1.43	enough cells to score	inactive
Pigm (phosphatidylinositol glycan anchor biosynthesis, class M)	SID315473096		1.42	1.24	fewer than 50 cells per well; well left out of scoring	inactive
Map3k21 (mitogen-activated protein kinase kinase kinase 21)	SID315479209	-0.76	1.7	1.29	enough cells to score	inactive
Lmf2 (lipase maturation factor 2)	SID315476515	1.29	1.87	1.81	enough cells to score	inactive
Atg4d (autophagy related 4D, cysteine peptidase)	SID315479218	1.11	1.7	1.74	enough cells to score	inactive
Eif3g (eukaryotic translation initiation factor 3, subunit G)	SID315471052	-0.6	1.43	1.25	enough cells to score	inactive

A run of entries from the list above, as a working copy:
gene knocked down	PubChem SID	p65 translocation robust z-score	nuclear/cytoplasmic p65 ratio, rep 1	nuclear/cytoplasmic p65 ratio, rep 2	low cell count flag	outcome
Pigm (phosphatidylinositol glycan anchor biosynthesis, class M)	SID315473096		1.42	1.24	fewer than 50 cells per well; well left out of scoring	inactive
Map3k21 (mitogen-activated protein kinase kinase kinase 21)	SID315479209	-0.76	1.7	1.29	enough cells to score	inactive
Lmf2 (lipase maturation factor 2)	SID315476515	1.29	1.87	1.81	enough cells to score	inactive
